Test results taken from PubChem BioAssay AID1671190 (National Center for Advancing Translational Sciences (NCATS), 2021).
Out of some 580,000 compounds screened, about 6,100 (1.1%) were called active. The shares of active, inactive and inconclusive entries below differ from those in the screen. Calls come from the whole dose curve; as a rule, active = well fitted inhibition curve with a large enough effect; inconclusive = small, poorly fitted or top-dose-only effect, or another doubt; inactive = no such curve, though single readings can be large or run the other way. Potencies of inconclusive entries are doubtful fits and often do not repeat.

Amino acid sequences for entries named in this document (tags omitted). A change or cut given only in a name is not applied to a line headed by its entry.
UniProt P18054: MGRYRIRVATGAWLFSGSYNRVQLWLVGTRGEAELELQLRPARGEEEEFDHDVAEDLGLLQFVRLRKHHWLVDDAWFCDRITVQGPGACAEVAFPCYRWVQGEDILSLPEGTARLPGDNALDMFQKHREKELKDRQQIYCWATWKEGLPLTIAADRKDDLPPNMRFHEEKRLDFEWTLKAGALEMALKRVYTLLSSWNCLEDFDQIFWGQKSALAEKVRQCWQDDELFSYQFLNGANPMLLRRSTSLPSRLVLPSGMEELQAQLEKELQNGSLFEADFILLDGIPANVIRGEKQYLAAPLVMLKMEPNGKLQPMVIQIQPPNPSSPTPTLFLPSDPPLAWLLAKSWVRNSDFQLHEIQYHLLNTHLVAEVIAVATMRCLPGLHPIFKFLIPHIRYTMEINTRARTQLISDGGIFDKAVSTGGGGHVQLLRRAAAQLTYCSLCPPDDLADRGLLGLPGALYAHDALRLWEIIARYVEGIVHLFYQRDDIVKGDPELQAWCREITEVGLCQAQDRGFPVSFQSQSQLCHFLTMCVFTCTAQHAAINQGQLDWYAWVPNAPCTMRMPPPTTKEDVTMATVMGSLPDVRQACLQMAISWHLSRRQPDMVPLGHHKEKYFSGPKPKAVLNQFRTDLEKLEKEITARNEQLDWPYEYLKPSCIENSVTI

Each compound was assayed against Polyunsaturated fatty acid lipoxygenase ALOX12 (Homo sapiens) (UniProt P18054) (assay: Primary qHTS assay for inhibitors of human arachidonate 12S-lipoxygenase (ALOX12): Round 2). Details: purified 12hLO, xylenol orange hydroperoxide absorbance; activity change, negative = inhibition: at 108 µM (top of the series) unless noted.
Outline: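 Purified human 12hLO (150 nM final) in 25 mM Hepes, 0.01% Triton X-100, pH 7.0 was preincubated 15 min at room temperature with compound. Then 40 uM arachidonic acid was added, 30 min. Hydroperoxide was read by Fe-XO absorbance ratio 573/405 nm.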
% is set by controls: 0 for no effect and ±100 for the full control effect; potency is the fitted concentration of half-maximal effect.

Row | Compound | Potency | activity change, negative = inhibition
1 | Fc1ccc(Nc2ccnc(Nc3ccc(F)cc3)n2)cc1 | inconclusive: 56.2 µM [inhibitor, single point] | 
2 | Cc1nnc(SCC(=O)NC2CCCC2)n1C(C)C | inconclusive: 44.7 µM [inhibitor, partial curve, poor fit] | 
3 | Cc1cc(C(=O)NNC(=S)NC(=O)c2ccccc2)cs1 | active: 28.2 µM | 
4 | COc1ccc(CCN2C(=O)COc3ccccc3C2C(=O)Nc2ccc3c(c2)OCCO3)cc1OC (stereo not given) | inconclusive: 50.1 µM [inhibitor, partial curve, poor fit] | 
5 | Fc1ccc(CN2CCC3(CC(Cc4ccccc4)=NO3)C2)cc1 (stereo not given) | inconclusive: 35.5 µM [inhibitor, partial curve, poor fit] | 
6 | COCCNc1ncnc2ccc(-c3cccc(OC)c3)cc12 | inconclusive: 3.55 µM [inhibitor, full curve, poor fit] | 
7 | COc1ccc(/C=N\Nc2ccc([N+](=O)[O-])cc2)c(C(=O)O)c1OC | inconclusive: 44.7 µM [inhibitor, partial curve, poor fit] | 
8 | CC(C)c1ccccc1NC(=S)NCCc1ccc(Cl)cc1Cl | inconclusive: 56.2 µM [inhibitor, partial curve, poor fit] | 
9 | O=C(CC12CC3CC(CC(C3)C1)C2)NC(=S)Nc1ccc(CN2CCOCC2)cc1 | inconclusive: 56.2 µM [inhibitor, partial curve, poor fit] | 
10 | O=C(N/N=C/C(Cl)=C/c1ccccc1)c1ccco1 |  | inactive: -4.24%
11 | COc1cccc(/C=N/c2sc(Cc3ccccc3)c(C)c2C(N)=O)c1O | inconclusive: 11.2 µM [inhibitor, full curve] | 
12 | CCN(CC)S(=O)(=O)c1cccc(NC(=O)C2CC(=O)N(c3ccc4c(c3)OCCO4)C2)c1 (stereo not given) |  | inactive: -11.4%
13 | CC1=C(C)C(C)=C(C#N)C(=C(C#N)C#N)N1 | active: 1.12 µM | 
14 | COc1ccc(NC(=O)Nc2cccc(OC)c2)cc1 |  | inactive: 19.8%
15 | O=C(CCc1ncc(-c2ccc(F)cc2)o1)Nc1ccccc1 |  | inactive: -5.19%
16 | CC(C)Cn1c(SCC(=O)c2ccc(C#N)cc2)nnc1-c1ccccc1 | inconclusive: 50.1 µM [inhibitor, partial curve, poor fit] | 
17 | Cc1nn(C)cc1CN(C)C(=O)Cn1nc2n(c1=O)CCC(N)CC2 (stereo not given) | inconclusive: 15.8 µM [inhibitor, full curve, poor fit] | 
18 | CCc1nn(CC(=O)NC(C)CCc2ccccc2)c(=O)c2cc3cc(F)ccc3n12 (stereo not given) |  | inconclusive: -30.5% [inhibitor]
19 | Cc1nn(CC(=O)Nc2ccccc2)c(C)c1S(=O)(=O)N1CCC(C)CC1 |  | inactive: -33%
20 | O=C1C(=Cc2cccn2-c2ccccc2)C(=O)c2ccccc21 | inconclusive: 50.1 µM [inhibitor, partial curve, poor fit] | 
21 | CC(=O)/C(=N\Nc1ccccc1)Sc1nncn1C | inconclusive: 50.1 µM [inhibitor, partial curve, poor fit] | 
22 | CC(C)c1noc(-c2cn(C3CCCN(C(=O)c4cccc(N(C)C)c4)C3)nn2)n1 (stereo not given) |  | inactive: 12.9%
23 | OC(c1ccccc1)c1ncc(-c2ccc(Cl)cc2)[nH]1 (stereo not given) |  | inactive: 2.49%
24 | OC1(c2ccccc2)CCN(Cc2ccccc2)C2CCCCC21 (stereo not given) |  | inactive: 7.37%

Compounds 15 to 16 of the list above:
Row | Compound | Potency | activity change, negative = inhibition
15 | O=C(CCc1ncc(-c2ccc(F)cc2)o1)Nc1ccccc1 |  | inactive: -5.19%
16 | CC(C)Cn1c(SCC(=O)c2ccc(C#N)cc2)nnc1-c1ccccc1 | inconclusive: 50.1 µM [inhibitor, partial curve, poor fit] | 

(more compounds)

Row | Compound | Potency | activity change, negative = inhibition
25 | NC(=O)CSc1oc(-c2ccco2)nc1S(=O)(=O)c1ccc(Br)cc1 | inconclusive: 39.8 µM [inhibitor, partial curve, poor fit] | 
26 | Cc1nc2c(s1)CCCC2NC(=O)c1ccc(CCC(C)(C)O)cc1 (stereo not given) | inconclusive: 56.2 µM [inhibitor, partial curve, poor fit] | 
27 | CN(CCC(N)=O)Cc1ccccc1OCC(O)CN1CCc2ccccc2C1 (stereo not given) |  | inactive: 35.5%
28 | COc1ccc(/C=C2\SC(=O)N(CCC(=O)N3CCN(C)CC3)C2=O)cc1 |  | inactive: -17.1%
29 | CC(C)(C)c1csc(NC(=O)c2cccs2)n1 | inconclusive: 50.1 µM [inhibitor, partial curve, poor fit] | 
30 | Cc1cc(NC(=O)N2CCN(C(=O)c3nsc4ccccc34)CC2)ccc1Br |  | inactive: 7.7%
31 | COc1ccc(-c2nc(-c3c(C)noc3C)cc3cc(C(C)C)oc23)cn1 | inconclusive: 5.62 µM [inhibitor, full curve] | 
32 | CCCC1C(c2ccccc2)NC(c2ccccc2)CC1(O)Cc1ccccc1 (stereo not given) | inconclusive: 35.5 µM [inhibitor, partial curve] | 
33 | Cc1cc(C)nc(N/N=C/c2ccccc2OCc2cccc(Br)c2)n1 |  | inactive: 12.5%
34 | Cc1ccc(C(=O)CSc2nc(C)cc(=O)[nH]2)cc1 | inconclusive: 25.1 µM [inhibitor, partial curve, poor fit] | 
35 | COc1cc(OC)cc(C(=O)N2CCN(C3CCCCC3)CC2)c1 | inconclusive: 0.355 µM [inhibitor, full curve, poor fit] | 
36 | CCCCCCCCCSCc1ccc(C(=O)O)o1 | inconclusive: 44.7 µM [inhibitor, partial curve, poor fit] | 
37 | Cc1ccc(C(=O)N[C@H]2CO[C@H]3[C@@H]2OC[C@@H]3Nc2nccc(-c3ccc4c(c3)OCO4)n2)cc1 | inconclusive: 7.94 µM [inhibitor, full curve] | 
38 | O=C(O)Cn1ccc2cc(OCc3cccc(-c4ccccc4O)c3)cnc21 | inconclusive: 89.1 µM [inhibitor, partial curve] | 
39 | CSc1cccc(NC(=O)Cn2c(N3CCC(C)CC3)nc(C)cc2=O)c1 |  | inactive: 24.7%
40 | CC1(c2ccccc2)C(C#N)C(=O)NC(=O)C1C#N (stereo not given) | inconclusive: 31.6 µM [inhibitor, partial curve, poor fit] | 
41 | CSCCC(C(=O)N(C)CC(=O)Nc1cccc(F)c1)N1C(=O)c2ccccc2C1=O (stereo not given) | inconclusive: 100 µM [inhibitor, single point] | 
42 | COC(=O)C1=C(C)N(Cc2ccc(F)cc2)C(=S)NC1c1ccc(F)cc1 (stereo not given) | inconclusive: 44.7 µM [inhibitor, partial curve, poor fit] | 
43 | O=C(O)C(c1c[nH]c2cc(Cl)ccc12)N1CCN(CCNc2cc(=O)oc3ccccc23)CC1 (stereo not given) | inconclusive: 44.7 µM [inhibitor, partial curve, poor fit] | 
44 | CCCCCN1CSC(=S)N(Cc2ccccc2)C1 | inconclusive: 112 µM [inhibitor, partial curve, poor fit] | 
45 | CN(CCOc1ccc(Cl)cc1)Cc1cc(=O)oc2cc(O)c(Cl)cc12 | inconclusive: 89.1 µM [inhibitor, partial curve, poor fit] | 
46 | CCN1c2cc(C(=O)Nc3ccc(C)c(F)c3)ccc2C(=O)N2CCCC21 (stereo not given) | inconclusive: 1.41 µM [inhibitor, full curve, poor fit] | 
47 | CC(C)(C)C(=O)c1cn(CC(=O)NCc2ccc3c(c2)OCO3)c2ccccc12 |  | inactive: -6.98%
48 | CCOc1ccccc1Oc1cn[nH]c1-c1ccc(OC)cc1O | inconclusive: 3.16 µM [inhibitor, full curve, poor fit] | 

Row | Compound | Potency | activity change, negative = inhibition
49 | OCc1ccccc1-c1nc(NCC2CC2)nc2ccsc12 | inconclusive: 89.1 µM [inhibitor, single point] | 
50 | CC1=C/C(=N\OS(=O)(=O)c2ccccc2)C(C)=CC1=O |  | inactive: 0%
51 | CC(C)C[C@@H](CN1CCCC1CN1C(=S)NC[C@@H]1Cc1ccc(O)cc1)N1C[C@H](Cc2ccc(O)cc2)N(CC2CCCCC2)C1=S (stereo not given in full) | inconclusive: 56.2 µM [inhibitor, partial curve, poor fit] | 
52 | CN(C)C(=O)COC(=O)c1cc(-c2cccs2)nc2ccccc12 | inconclusive: 200 µM [inhibitor, partial curve, poor fit] | 
53 | O=C(N[C@H]1CCN2C(=O)c3ccc(Cl)cc3NC(=O)[C@H]12)c1cccs1 | inconclusive: 112 µM [inhibitor, single point] | 
54 | O=C(Nc1ccc(C(=O)c2ccccc2)cc1)c1ccccc1 | inconclusive: 0.251 µM [inhibitor, full curve, poor fit] | 
55 | Cc1ccc(NC(=O)Cn2nc(C)c3nn(-c4ccc(Cl)cc4)c(C)c3c2=O)cc1C | inconclusive: 5.62 µM [inhibitor, full curve, poor fit] | 
56 | COc1ccc(NS(=O)(=O)c2cccc(C(=O)N3CCc4sccc4C3)c2)cc1 |  | inactive: -37.6%
57 | Cc1ccc(-c2cc(-c3ccc(C)cc3O)[nH]n2)cc1 |  | inactive: 9.17%
58 | O=C(Nc1nccs1)c1csc(NC2CC2)n1 |  | inactive: -6.34%
59 | N=c1ccn(Cc2ccc(F)cc2)cc1 |  | inactive: 151%
60 | Cc1c(/C=N/n2cnnc2)c2ccccc2n1CCOc1ccc(Cl)cc1 |  | inactive: -1.01%
61 | Cc1onc(-c2c(F)cccc2Cl)c1C(=O)OCC(=O)C(C)(C)C |  | inactive: -5.95%
62 | CN1CCN(C(=S)Nc2ccc(Cl)c(Cl)c2)CC1 | inconclusive: 70.8 µM [inhibitor, partial curve, poor fit] | 
63 | O=C(NCCN1CCCCC1)c1ccc(-c2ccc(N3CCCCC3)nc2)cc1 | inconclusive: 8.91 µM [inhibitor, full curve] | 
64 | CCCCC(=O)NC(NC(=O)CCCC)c1ccc(Cl)cc1 |  | inactive: -27.3%
65 | CS(=O)(=O)N1CCCN(C(=O)C2CCC2)CCNC(=O)CC1c1ccccc1 (stereo not given) |  | inactive: 33.9%
66 | CC1(C)C=C2C(=NN(c3ccccc3)C(N)=C2C#N)CO1 |  | inactive: 0%
67 | COc1cccc(CN(C)C(=S)Nc2cccc(C)c2)c1 | inconclusive: 50.1 µM [inhibitor, partial curve, poor fit] | 
68 | COc1c2c(c(CCC(=O)O)c3c1C=CC(C)(C)O3)OC(C)(C)C=C2 |  | inactive: 47.5%
69 | Cc1ccc(CNC(=O)C(=O)NCC2OCCN2S(=O)(=O)c2ccc3c(c2)OCCO3)cc1 (stereo not given) |  | inactive: 23.7%
70 | COc1cc(-c2nc(CN3CCN(C(=O)c4ccco4)CC3)c(C)o2)ccc1F | inconclusive: 44.7 µM [inhibitor, partial curve, poor fit] | 
